Data on one substance can be found in paper PMC9184547, “Distinct dissociation rates of murine and human norovirus P-domain dimers suggest a role of dimer stability in virus-host interactions” (Communications Biology, 2022).

Chains of the proteins cited; added tags and fusions are not shown. Residues count along the entry.
UniProt Q80J94, residues 225-541: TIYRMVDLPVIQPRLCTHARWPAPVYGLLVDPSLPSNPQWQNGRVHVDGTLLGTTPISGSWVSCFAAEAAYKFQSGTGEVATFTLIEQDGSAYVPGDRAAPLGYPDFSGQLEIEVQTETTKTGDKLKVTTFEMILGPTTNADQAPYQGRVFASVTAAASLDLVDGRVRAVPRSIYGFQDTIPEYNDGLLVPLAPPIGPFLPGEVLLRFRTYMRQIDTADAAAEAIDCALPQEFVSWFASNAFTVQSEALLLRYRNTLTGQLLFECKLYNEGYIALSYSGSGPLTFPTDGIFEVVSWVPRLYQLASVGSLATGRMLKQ

These are yes or no findings as the source states them, for the method shown. Some binding calls cover weakened binding; strength is not graded here.

This assay addresses MNV-1 (CW1) P-domain (murine norovirus MNV-1 (CW1)) (UniProt Q80J94). Kind of assay: NMR titration; methyl TROSY and 1H,15N TROSY HSQC spectra of P-domain (50 or 100 uM) titrated with GCDCA up to 550 or 300 uM; 298 K, pH* 5.3; both purified.

With “MNV-1 (CW1) P-domain (from UniProt Q80J94 225-541) (domain or fragment)”, the binding entry is listed as “binds”.
